Results as given in patent publication US20260274981A1.
These are yes or no findings as the source states them, for the method shown. Some entries that bind do so weakly or less than the wild type.

Target: recombinant human TfR (2474-TR, R&D Systems), biotinylated (human) (UniProt P02786)
Assay: SPR (Biacore), biotinylated human TfR on SA chip, off rates at pH7.4 and pH5.5

Binder | binding
BBB00729 (VHH) VHH: EVQLVESGGGSVQPGGSLRLSCTASGRTFNYAMGWFRQAPGKNREFVATIDWKDGSSYYLDSVRGRFTIERDDAKNTVYLQMNSLRPEDAAVYTCAVGDGDYCSTYTCAAEVEYDHWGQGTLVTVSS | binds
BBB00718 (VHH) VHH: EVQLVESGGGSVQPGGSLRLSCTASGRTFNYAMGWFRQAPGKNREFVATIDWKDGSSYYLDSVRGRFTIERDDAKNTVYLQMNSLRPEDAAVYTCAVGDGDYCHTYTCAAEVEYDYWGQGTLVTVSS | binds
BBB00709 (VHH) VHH: EVQLVESGGGSVQPGGSLRLSCTASGRTFNYAMGWFRQAPGKNREFVATIDWKDHSSYYLDSVRGRFTIERDDAKNTVYLQMNSLRPEDAAVYTCAVGDGDYCSTYTCAAEVEYDYWGQGTLVTVSS | binds

The remaining lines, values ahead:

binding | Binder
binds | BBB00697 (VHH) VHH: EVQLVESGGGSVQPGGSLRLSCTASGRTHNYAMGWFRQAPGKNREFVATIDWKDGSSYYLDSVRGRFTIERDDAKNTVYLQMNSLRPEDAAVYTCAVGDGDYCSTYTCAAEVEYDYWGQGTLVTVSS
binds | BBB00704 (VHH) VHH: EVQLVESGGGSVQPGGSLRLSCTASGRTFNYAMGWFRQAPGKNREFVATHDWKDGSSYYLDSVRGRFTIERDDAKNTVYLQMNSLRPEDAAVYTCAVGDGDYCSTYTCAAEVEYDYWGQGTLVTVSS
binds | BBB00710 (VHH) VHH: EVQLVESGGGSVQPGGSLRLSCTASGRTFNYAMGWFRQAPGKNREFVATIDWKDGHSYYLDSVRGRFTIERDDAKNTVYLQMNSLRPEDAAVYTCAVGDGDYCSTYTCAAEVEYDYWGQGTLVTVSS
binds | BBB00698 (VHH) VHH: EVQLVESGGGSVQPGGSLRLSCTASGRTFHYAMGWFRQAPGKNREFVATIDWKDGSSYYLDSVRGRFTIERDDAKNTVYLQMNSLRPEDAAVYTCAVGDGDYCSTYTCAAEVEYDYWGQGTLVTVSS
